The expression values are mRNA levels of the gene; the protein chain is shown to identify it.
The substances below were run on tumor-associated antigen genes (assay: Percent expression of TAA gene in patients (TCGA RNAseqV2 dataset)). Settings: NSCLC panel.
Set-up: species or system human
In the case of MAGE-A4, the “% Expression in TCGA” value is reported as 35%.
In the case of MAGE-A6, the “% Expression in TCGA” value is reported as 53%.
In the case of NY-ES01, the “% Expression in TCGA” value is reported as 50%.
In the case of RNF43, the “% Expression in TCGA” value is reported as 100%.
